{"sequences": {"note": "The chains behind the UniProt entries cited, without tags or fusion partners. Residues count along the entry.", "UniProt Q14790": "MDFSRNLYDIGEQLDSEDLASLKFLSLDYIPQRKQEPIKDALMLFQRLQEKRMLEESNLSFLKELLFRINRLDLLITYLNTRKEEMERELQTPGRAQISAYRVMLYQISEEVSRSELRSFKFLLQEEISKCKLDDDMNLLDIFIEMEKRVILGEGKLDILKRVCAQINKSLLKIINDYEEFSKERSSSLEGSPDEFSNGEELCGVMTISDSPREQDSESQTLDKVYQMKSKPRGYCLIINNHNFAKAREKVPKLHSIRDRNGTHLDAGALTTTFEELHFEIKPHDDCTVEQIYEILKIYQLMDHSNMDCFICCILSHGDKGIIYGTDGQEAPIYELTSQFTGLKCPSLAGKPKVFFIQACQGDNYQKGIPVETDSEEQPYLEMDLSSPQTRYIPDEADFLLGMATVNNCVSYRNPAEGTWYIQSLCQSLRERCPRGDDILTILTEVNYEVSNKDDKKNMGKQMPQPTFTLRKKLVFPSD", "UniProt P25445, residues 26-335": "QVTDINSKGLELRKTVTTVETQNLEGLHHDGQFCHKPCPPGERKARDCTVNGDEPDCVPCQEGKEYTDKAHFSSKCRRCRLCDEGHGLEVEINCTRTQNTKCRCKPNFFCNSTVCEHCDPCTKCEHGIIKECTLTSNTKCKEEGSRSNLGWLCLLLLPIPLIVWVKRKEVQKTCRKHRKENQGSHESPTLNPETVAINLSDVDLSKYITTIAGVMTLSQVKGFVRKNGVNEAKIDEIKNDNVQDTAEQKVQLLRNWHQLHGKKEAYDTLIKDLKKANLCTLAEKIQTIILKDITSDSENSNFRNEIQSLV"}, "source": "paper PMC11178496", "binders": {"B1": {"name": "RIOK1 (protein, UniProt Q9BRS2 1-568)", "chain": "MDYRRLLMSRVVPGQFDDADSSDSENRDLKTVKEKDDILFEDLQDNVNENGEGEIEDEEEEGYDDDDDDWDWDEGVGKLAKGYVWNGGSNPQANRQTSDSSSAKMSTPADKVLRKFENKINLDKLNVTDSVINKVTEKSRQKEADMYRIKDKADRATVEQVLDPRTRMILFKMLTRGIITEINGCISTGKEANVYHASTANGESRAIKIYKTSILVFKDRDKYVSGEFRFRHGYCKGNPRKMVKTWAEKEMRNLIRLNTAEIPCPEPIMLRSHVLVMSFIGKDDMPAPLLKNVQLSESKARELYLQVIQYMRRMYQDARLVHADLSEFNMLYHGGGVYIIDVSQSVEHDHPHALEFLRKDCANVNDFFMRHSVAVMTVRELFEFVTDPSITHENMDAYLSKAMEIASQRTKEERSSQDHVDEEVFKRAYIPRTLNEVKNYERDMDIIMKLKEEDMAMNAQQDNILYQTVTGLKKDLSGVQKVPALLENQVEERTCSDSEDIGSSECSDTDSEEQGDHARPKKHTTDPDIDKKERKKMVKEAQREKRKNKIPKHVKKRKEKTAKTKKGK"}}, "key": {"[1]": {"target": "Procaspase-8 (human (endogenous in SKW 6.4)) (UniProt Q14790)", "assay": "affinity purification with mass spectrometry; anti-caspase-8 or anti-CD95 (anti-APO-1) antibodies covalently coupled to sepharose beads (Pierce Co-Immunoprecipitation kit); total lysates of SKW 6.4 cells treated for 15 min with 166 ng/mL CD95L or left untreated; nanoLC-tandem mass spectrometry"}, "[2]": {"target": "CD95/Fas (human (endogenous in SKW 6.4)) (UniProt P25445)", "assay": "affinity purification with mass spectrometry; anti-caspase-8 or anti-CD95 (anti-APO-1) antibodies covalently coupled to sepharose beads (Pierce Co-Immunoprecipitation kit); total lysates of SKW 6.4 cells treated for 15 min with 166 ng/mL CD95L or left untreated; nanoLC-tandem mass spectrometry"}}, "note": "These are yes or no findings as the source states them, for the method shown. Binding seen in cells or lysates may run through a third protein. A yes stands for co-enrichment or nearness to the bait. Other partners may have been found.", "data": [{"binder": "B1", "values": [{"measurement": "binding", "setting": "[1]", "result": "binds"}, {"measurement": "binding", "setting": "[2]", "result": "binds"}]}]}
